Measured values reported in publication PMC9885069 (Scientific Reports, 2023).

Test system: host cell gene expression in 02SF NPCs
Assay: RNA sequencing and Ingenuity Pathway Analysis of uninfected NPCs
Type: cell-based, human
Details: uninfected 02SF NPCs, 10 μM, 72 h, of 12,433 expressed genes; for number of host cell genes significantly altered in expression: FDR corrected p ≤ 0.05

Row | SMILES | fraction of host cell genes significantly altered in expression [%] | number of host cell genes significantly altered in expression
1 | O=C1N[C@H]2[C@H](O)[C@H](O)[C@@H](O)C[C@@H]2c2cccc(O)c21 [Compound 8, (2S,3R,4S,4aR,10bR)-2,3,4,7-Tetrahydroxy-1,3,4,4a,5,10b-hexahydrophenanthridin-6(2H)-one] | 59.8 | 7433
2 | O=C1N[C@H]2[C@H](O)[C@H](O)[C@@H](O)C[C@@H]2c2cc3c(cc21)OCO3 [Compound 2b, trans-dihydrolycoricidine, reference compound] | 62.5 | 7766
3 | O=C1N[C@H]2[C@H](O)[C@H](O)[C@@H](O)C[C@@H]2c2cc(O)ccc21 [Compound 6, (2S,3R,4S,4aR,10bR)-2,3,4,9-Tetrahydroxy-1,3,4,4a,5,10b-hexahydrophenanthridin-6(2H)-one] | 2.1 | 256
4 | COc1cccc2c1C(=O)N[C@H]1[C@H](O)[C@H](O)[C@@H](O)C[C@H]21 [Compound 7, (2S,3R,4S,4aR,10bR)-2,3,4-Trihydroxy-7-methoxy-1,3,4,4a,5,10b-hexahydrophenanthridin-6(2H)-one] | 0.3 | 33
